Laboratory results as given in the supplement of paper PMC7661543.
The effect of the compound repeats well; differences between the knockouts mostly do not.

Test system: SKBR3
Experiment: relative cell number vs DMSO control (72 h) (% of DMSO); higher = less growth inhibition (more cells)
Method: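 QMAP-Seq: a pool of 5 breast cancer cell lines (ZR-75-1, SKBR3, HCC-38, MDA-MB-231, BT-20), each carrying 12 doxycycline-inducible Cas9 sgRNA perturbations (11 knockouts plus non-targeting sgNT), was treated with compounds for 72 h at four 10-fold doses (10 nM-10 uM or 1 nM-1 uM range). Barcodes were amplified and sequenced, and cell number was interpolated from 293T spike-in standard curves. The result is expressed as % of the median of DMSO wells. Two biological replicates.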

CC(C)C[C@H](NC(=O)CNC(=O)c1cc(Cl)ccc1Cl)B(O)O [MLN2238]
Conditions	relative cell number
sgRNA knockout: sgATF3, 10 nM	122
sgRNA knockout: sgATF3, 100 nM	52.3
sgRNA knockout: sgATF3, 1000 nM	8.14
sgRNA knockout: sgATF3, 10000 nM	5.38
sgRNA knockout: sgATF4, 10 nM	73.4
sgRNA knockout: sgATF4, 100 nM	40.5
sgRNA knockout: sgATF4, 1000 nM	9.76
sgRNA knockout: sgATF4, 10000 nM	6.82
sgRNA knockout: sgATF6, 10 nM	73.4
sgRNA knockout: sgATF6, 100 nM	42.7
sgRNA knockout: sgATF6, 1000 nM	11.2
sgRNA knockout: sgATF6, 10000 nM	5.46
sgRNA knockout: sgATG7, 10 nM	81
sgRNA knockout: sgATG7, 100 nM	54.2
sgRNA knockout: sgATG7, 1000 nM	15.9
sgRNA knockout: sgATG7, 10000 nM	7.39
sgRNA knockout: sgERN1, 10 nM	80.6
sgRNA knockout: sgERN1, 100 nM	59.3
sgRNA knockout: sgERN1, 1000 nM	11.5
sgRNA knockout: sgERN1, 10000 nM	7.31
sgRNA knockout: sgHSF1, 10 nM	68.8
sgRNA knockout: sgHSF1, 100 nM	31.5
sgRNA knockout: sgHSF1, 1000 nM	5.21
sgRNA knockout: sgHSF1, 10000 nM	6.17
sgRNA knockout: sgHSF2, 10 nM	90.3
sgRNA knockout: sgHSF2, 100 nM	50.3
sgRNA knockout: sgHSF2, 1000 nM	12
sgRNA knockout: sgHSF2, 10000 nM	6.86
sgRNA knockout: sgKEAP1, 10 nM	72.3
sgRNA knockout: sgKEAP1, 100 nM	48.7
sgRNA knockout: sgKEAP1, 1000 nM	7.51
sgRNA knockout: sgKEAP1, 10000 nM	5.28
sgRNA knockout: sgNFE2L2, 10 nM	61.5
sgRNA knockout: sgNFE2L2, 100 nM	36.1
sgRNA knockout: sgNFE2L2, 1000 nM	8.54
sgRNA knockout: sgNFE2L2, 10000 nM	6.22
sgRNA knockout: sgSLC35F2, 10 nM	72.7
sgRNA knockout: sgSLC35F2, 100 nM	40.4
sgRNA knockout: sgSLC35F2, 1000 nM	11.9
sgRNA knockout: sgSLC35F2, 10000 nM	8.66
sgRNA knockout: sgXBP1, 10 nM	78.1
sgRNA knockout: sgXBP1, 100 nM	52
sgRNA knockout: sgXBP1, 1000 nM	8.21
sgRNA knockout: sgXBP1, 10000 nM	5.33

COc1cc(-n2c(=S)[nH]c3ccccc3c2=O)c(Cl)cc1Cl [Mdivi1]
Conditions	relative cell number
sgRNA knockout: sgATF3, 10 nM	96.2
sgRNA knockout: sgATF3, 100 nM	82.7
sgRNA knockout: sgATF3, 1000 nM	99.69
sgRNA knockout: sgATF3, 10000 nM	63.8
sgRNA knockout: sgATF4, 10 nM	86.88
sgRNA knockout: sgATF4, 100 nM	107
sgRNA knockout: sgATF4, 1000 nM	87.7
sgRNA knockout: sgATF4, 10000 nM	59.4
sgRNA knockout: sgATF6, 10 nM	82.8
sgRNA knockout: sgATF6, 100 nM	85.2
sgRNA knockout: sgATF6, 1000 nM	78.8
sgRNA knockout: sgATF6, 10000 nM	50.4
sgRNA knockout: sgATG7, 10 nM	77.8
sgRNA knockout: sgATG7, 100 nM	113
sgRNA knockout: sgATG7, 1000 nM	101
sgRNA knockout: sgATG7, 10000 nM	37.1
sgRNA knockout: sgERN1, 10 nM	79
sgRNA knockout: sgERN1, 100 nM	101
sgRNA knockout: sgERN1, 1000 nM	63.1
sgRNA knockout: sgERN1, 10000 nM	89.2
sgRNA knockout: sgHSF1, 10 nM	80.9
sgRNA knockout: sgHSF1, 100 nM	98.5
sgRNA knockout: sgHSF1, 1000 nM	68.2
sgRNA knockout: sgHSF1, 10000 nM	56.3
sgRNA knockout: sgHSF2, 10 nM	85.1
sgRNA knockout: sgHSF2, 100 nM	97.5
sgRNA knockout: sgHSF2, 1000 nM	84.5
sgRNA knockout: sgHSF2, 10000 nM	56.8
sgRNA knockout: sgKEAP1, 10 nM	96
sgRNA knockout: sgKEAP1, 100 nM	108
sgRNA knockout: sgKEAP1, 1000 nM	89.8
sgRNA knockout: sgKEAP1, 10000 nM	61.59
sgRNA knockout: sgNFE2L2, 10 nM	94
sgRNA knockout: sgNFE2L2, 100 nM	107
sgRNA knockout: sgNFE2L2, 1000 nM	101
sgRNA knockout: sgNFE2L2, 10000 nM	61.8
sgRNA knockout: sgSLC35F2, 10 nM	72
sgRNA knockout: sgSLC35F2, 100 nM	111
sgRNA knockout: sgSLC35F2, 1000 nM	87
sgRNA knockout: sgSLC35F2, 10000 nM	63.1
sgRNA knockout: sgXBP1, 10 nM	88.2
sgRNA knockout: sgXBP1, 100 nM	83.2
sgRNA knockout: sgXBP1, 1000 nM	97.3
sgRNA knockout: sgXBP1, 10000 nM	78.1

O=C1c2c(O)ccc(O)c2C(=O)c2c(NCCNCCO)ccc(NCCNCCO)c21 [Mitoxantrone]
Conditions	relative cell number
sgRNA knockout: sgATF3, 10 nM	45.6
sgRNA knockout: sgATF3, 100 nM	17.8
sgRNA knockout: sgATF3, 1000 nM	6.03
sgRNA knockout: sgATF3, 10000 nM	6.82
sgRNA knockout: sgATF4, 10 nM	52.1
sgRNA knockout: sgATF4, 100 nM	27.2
sgRNA knockout: sgATF4, 1000 nM	8.52
sgRNA knockout: sgATF4, 10000 nM	4.59
sgRNA knockout: sgATF6, 10 nM	50.1
sgRNA knockout: sgATF6, 100 nM	22.1
sgRNA knockout: sgATF6, 1000 nM	6.71
sgRNA knockout: sgATF6, 10000 nM	4.34
sgRNA knockout: sgATG7, 10 nM	56.7
sgRNA knockout: sgATG7, 100 nM	23.7
sgRNA knockout: sgATG7, 1000 nM	4.04
sgRNA knockout: sgATG7, 10000 nM	7.83
sgRNA knockout: sgERN1, 10 nM	36.4
sgRNA knockout: sgERN1, 100 nM	25.6
sgRNA knockout: sgERN1, 1000 nM	6.16
sgRNA knockout: sgERN1, 10000 nM	7.09
sgRNA knockout: sgHSF1, 10 nM	55.1
sgRNA knockout: sgHSF1, 100 nM	22.3
sgRNA knockout: sgHSF1, 1000 nM	6.59
sgRNA knockout: sgHSF1, 10000 nM	5.26
sgRNA knockout: sgHSF2, 10 nM	38.8
sgRNA knockout: sgHSF2, 100 nM	24.1
sgRNA knockout: sgHSF2, 1000 nM	7.5
sgRNA knockout: sgHSF2, 10000 nM	6.11
sgRNA knockout: sgKEAP1, 10 nM	38.6
sgRNA knockout: sgKEAP1, 100 nM	27.2
sgRNA knockout: sgKEAP1, 1000 nM	9.05
sgRNA knockout: sgKEAP1, 10000 nM	6.46
sgRNA knockout: sgNFE2L2, 10 nM	46.9
sgRNA knockout: sgNFE2L2, 100 nM	17.2
sgRNA knockout: sgNFE2L2, 1000 nM	7.088
sgRNA knockout: sgNFE2L2, 10000 nM	7.13
sgRNA knockout: sgSLC35F2, 10 nM	47.2
sgRNA knockout: sgSLC35F2, 100 nM	23.6
sgRNA knockout: sgSLC35F2, 1000 nM	6.35
sgRNA knockout: sgSLC35F2, 10000 nM	6.6
sgRNA knockout: sgXBP1, 10 nM	41.4
sgRNA knockout: sgXBP1, 100 nM	24.5
sgRNA knockout: sgXBP1, 1000 nM	6.11
sgRNA knockout: sgXBP1, 10000 nM	7.42
